Experimental data published in article PMC11927390.
These are yes or no findings as the source states them, for the method shown. Some entries that bind do so weakly or less than the wild type.

Sequences of proteins named here, by UniProt entry; tags and fusion partners are left off. Residues count along the entry.
UniProt P26718, residues 73-216: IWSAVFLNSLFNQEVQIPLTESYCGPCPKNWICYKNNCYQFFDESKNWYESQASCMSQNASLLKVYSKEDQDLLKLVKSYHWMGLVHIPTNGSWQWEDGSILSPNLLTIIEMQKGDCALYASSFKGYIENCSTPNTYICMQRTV

Columns and labels:
[1] = biological target: Fc-tagged human NKG2D (human) (UniProt P26718); experiment: ELISA; blocking assay: plates coated with Fc-tagged NKG2D; biotinylated ULBP5 (1.55 nmol/L) or ULBP6-02 (0.15 nmol/L) at its EC80 precomplexed with 23ME-01473 and transferred to the plates; IC50 from dose-response fit; both purified
[2] = biological target: Fc-tagged human NKG2D (human) (UniProt P26718); experiment: SPR; Biacore 8K or 8K+, 37°C; Fc-tagged human NKG2D (0.5 μg/mL) captured on Series S Sensor Protein A chip to about 25 RU; threefold serial dilutions of NKG2DLs injected at 30 μL/minute in HBS-P (0.01 mol/L HEPES pH 7.4, 0.15 mol/L NaCl, 0.005% P20); KD from steady-state fit; both purified

Row | Binder | binding [1] | binding [2]
1 | biotinylated ULBP5 (ligand, UniProt Q6H3X3 26-218, biotin) GLADPHSLCYDITVIPKFRPGPRWCAVQGQVDEKTFLHYDCGSKTVTPVSPLGKKLNVTTAWKAQNPVLREVVDILTEQLLDIQLENYIPKEPLTLQARMSCEQKAEGHGSGSWQLSFDGQIFLLFDSENRMWTTVHPGARKMKEKWENDKDMTMSFHYISMGDCTGWLEDFLMGMDSTLEPSAGAPPTMSSG | binds | –
2 | biotinylated ULBP6-02 (ligand, UniProt Q5VY80 26-218, biotin) RRDDPHSLCYDITVIPKFRPGPRWCAVQGQVDEKTFLHYDCGNKTVTPVSPLGKKLNVTMAWKAQNPVLREVVDILTEQLLDIQLENYTPKEPLTLQARMSCEQKAEGHSSGSWQFSIDGQTFLLFDSEKRMWTTVHPGARKMKEKWENDKDVAMSFHYISMGDCIGWLEDFLMGMDSTLEPSAGAPLAMSSG | binds | –
3 | human MICA (MHC class I polypeptide-related sequence A), soluble recombinant (ligand, UniProt Q29983 24-307) EPHSLRYNLTVLSWDGSVQSGFLTEVHLDGQPFLRCDRQKCRAKPQGQWAEDVLGNKTWDRETRDLTGNGKDLRMTLAHIKDQKEGLHSLQEIRVCEIHEDNSTRSSQHFYYDGELFLSQNLETKEWTMPQSSRAQTLAMNVRNFLKEDAMKTKTHYHAMHADCLQELRRYLKSGVVLRRTVPPMVNVTRSEASEGNITVTCRASGFYPWNITLSWRQDGVSLSHDTQQWGDVLPDGNGTYQTWVATRICQGEEQRFTCYMEHSGNHSTHPVPSGKVLVLQSHW | – | binds
